Patent US20200270352A1
These are yes or no findings as the source states them, for the method shown. Some results given as binding are weak or reduced against the parent protein; the word gives no strength.

The chains behind the UniProt entries cited, without tags or fusion partners. Where a name states a change or a piece, a line headed by the entry shows the natural chain unless it says otherwise.
UniProt P08069: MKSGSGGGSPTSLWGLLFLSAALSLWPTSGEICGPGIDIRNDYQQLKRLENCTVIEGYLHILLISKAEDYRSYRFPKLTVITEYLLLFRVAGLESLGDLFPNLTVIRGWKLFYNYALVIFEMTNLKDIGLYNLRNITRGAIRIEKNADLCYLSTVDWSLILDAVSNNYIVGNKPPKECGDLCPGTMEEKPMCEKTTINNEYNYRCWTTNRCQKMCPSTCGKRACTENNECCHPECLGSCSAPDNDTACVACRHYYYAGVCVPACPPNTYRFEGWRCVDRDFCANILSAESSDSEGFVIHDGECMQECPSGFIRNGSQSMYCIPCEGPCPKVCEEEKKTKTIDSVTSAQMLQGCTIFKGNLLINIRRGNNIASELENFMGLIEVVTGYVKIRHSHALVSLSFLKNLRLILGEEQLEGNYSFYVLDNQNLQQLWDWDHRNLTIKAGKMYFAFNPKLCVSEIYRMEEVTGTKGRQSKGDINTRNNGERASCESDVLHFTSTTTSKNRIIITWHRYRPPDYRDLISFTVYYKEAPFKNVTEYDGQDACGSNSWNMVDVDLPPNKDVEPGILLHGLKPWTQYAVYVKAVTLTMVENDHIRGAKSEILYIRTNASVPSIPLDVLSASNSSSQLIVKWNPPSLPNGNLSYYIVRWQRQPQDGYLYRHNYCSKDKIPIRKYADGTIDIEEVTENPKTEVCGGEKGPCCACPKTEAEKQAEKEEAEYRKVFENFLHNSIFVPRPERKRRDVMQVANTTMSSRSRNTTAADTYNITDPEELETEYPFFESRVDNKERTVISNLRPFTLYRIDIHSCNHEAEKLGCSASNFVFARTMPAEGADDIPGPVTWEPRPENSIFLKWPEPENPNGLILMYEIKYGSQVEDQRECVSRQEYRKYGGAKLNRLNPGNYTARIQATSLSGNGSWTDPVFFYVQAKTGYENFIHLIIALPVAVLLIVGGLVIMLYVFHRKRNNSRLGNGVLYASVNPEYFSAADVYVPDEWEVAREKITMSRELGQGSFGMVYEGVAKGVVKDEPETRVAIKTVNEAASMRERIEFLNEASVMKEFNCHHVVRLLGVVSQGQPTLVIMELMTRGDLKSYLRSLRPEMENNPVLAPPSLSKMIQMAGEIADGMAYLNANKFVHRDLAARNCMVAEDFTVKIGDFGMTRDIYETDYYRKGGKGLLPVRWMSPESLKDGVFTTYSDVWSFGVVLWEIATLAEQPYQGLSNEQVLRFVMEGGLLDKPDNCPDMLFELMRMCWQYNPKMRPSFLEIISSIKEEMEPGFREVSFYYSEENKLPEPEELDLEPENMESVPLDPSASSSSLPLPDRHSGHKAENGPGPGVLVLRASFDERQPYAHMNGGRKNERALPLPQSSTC

Legend:
[1] = target: human IGF-1R, native, on cells (MCF-7, hIGF-1R transfected cells, primary normal human cells) (human) (UniProt P08069); experiment: FACS titration on MCF-7
[2] = target: human IGF-1R, native, on cells (MCF-7, hIGF-1R transfected cells, primary normal human cells) (human) (UniProt P08069); experiment: FACS on MCF-7

- binding [1]: binds
- binding [2]: binds
B1: humanized antibody hz208F2 VH3/VL3 (hz208F2 H026/L024) (antibody, human IgG1, kappa, V domains shown)
VH: QVQLVQSGAEVKKPGASVKMSCKASGYTFTSYYIYWVKQAPGQGLEWLGWIWPGDGSTKYNEKFQGRVTLTADKSSNTAYMFLSSLRSEDTAVYFCASPMITPNYAMDYWGQGTLVTVSS
VL: DIQMTQSPSSLSASVGDRVTISCRASQDISKYLNWYQQKPGKAPKLLIYYTSRLHSGVPSRFSGRGSGTDYSLTISNLQPEDFATYFCQQGSTLPYTFGGGTKVEIKR
